From article PMC8616899
These are yes or no findings as the source states them, for the method shown. For some assays here: Binding seen in cells or lysates may run through a third protein. Some binding calls cover weakened binding; strength is not graded here. For some assays here: Tags and fused reporters may be left off the sequences shown. Blank lines part the entries; values can stand above or below the molecule they belong to.

The chains behind the UniProt entries cited, without tags or fusion partners.
UniProt Q96G97: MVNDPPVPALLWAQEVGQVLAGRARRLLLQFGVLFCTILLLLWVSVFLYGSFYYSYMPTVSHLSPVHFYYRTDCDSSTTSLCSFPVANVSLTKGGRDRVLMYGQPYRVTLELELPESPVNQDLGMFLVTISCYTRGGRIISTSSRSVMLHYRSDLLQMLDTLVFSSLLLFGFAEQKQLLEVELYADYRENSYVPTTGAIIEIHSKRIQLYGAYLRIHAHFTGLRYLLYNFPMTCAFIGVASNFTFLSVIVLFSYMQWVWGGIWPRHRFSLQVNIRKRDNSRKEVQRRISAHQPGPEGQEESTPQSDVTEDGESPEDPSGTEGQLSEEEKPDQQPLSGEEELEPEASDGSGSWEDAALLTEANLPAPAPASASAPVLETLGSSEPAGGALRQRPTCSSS

Legend:
[1] = biological target: T1, GPAT4 (construct of the control co-immunoprecipitation, Supplementary Fig. 5b) (UniProt Q86UL3); assay: co-IP; control co-IP 'under the same conditions' as the AGPAT2-CDS1/2 co-IP (Supplementary Fig. 5b); tags and bait not shown
T1 sequence: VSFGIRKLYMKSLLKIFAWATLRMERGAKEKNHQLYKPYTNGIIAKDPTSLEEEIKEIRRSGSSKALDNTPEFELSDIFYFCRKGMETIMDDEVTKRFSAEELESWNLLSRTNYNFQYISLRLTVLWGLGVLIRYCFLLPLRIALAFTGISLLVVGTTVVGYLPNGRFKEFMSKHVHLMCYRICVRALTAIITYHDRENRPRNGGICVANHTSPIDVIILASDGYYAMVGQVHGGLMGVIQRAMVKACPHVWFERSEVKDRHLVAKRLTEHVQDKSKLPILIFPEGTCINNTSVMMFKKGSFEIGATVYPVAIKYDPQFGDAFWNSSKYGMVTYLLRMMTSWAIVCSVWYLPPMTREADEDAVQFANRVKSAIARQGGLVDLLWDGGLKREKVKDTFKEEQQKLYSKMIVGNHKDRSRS

[2] = biological target: T2, HA-CDS1 (human CDP-diacylglycerol synthase 1, HA-tagged) (human) (UniProt Q92903); assay: co-IP; transfected HEK293E lysates (1 mg) with HA-agarose beads, 4 °C, 16 h; 25 mM HEPES pH 7.4, 150 mM NaCl, 1 mM EDTA, 10% glycerol, 1% DDM; washed with 25 mM HEPES pH 7.4, 150 mM NaCl, 0.1% NP-40; Western blot
T2 sequence: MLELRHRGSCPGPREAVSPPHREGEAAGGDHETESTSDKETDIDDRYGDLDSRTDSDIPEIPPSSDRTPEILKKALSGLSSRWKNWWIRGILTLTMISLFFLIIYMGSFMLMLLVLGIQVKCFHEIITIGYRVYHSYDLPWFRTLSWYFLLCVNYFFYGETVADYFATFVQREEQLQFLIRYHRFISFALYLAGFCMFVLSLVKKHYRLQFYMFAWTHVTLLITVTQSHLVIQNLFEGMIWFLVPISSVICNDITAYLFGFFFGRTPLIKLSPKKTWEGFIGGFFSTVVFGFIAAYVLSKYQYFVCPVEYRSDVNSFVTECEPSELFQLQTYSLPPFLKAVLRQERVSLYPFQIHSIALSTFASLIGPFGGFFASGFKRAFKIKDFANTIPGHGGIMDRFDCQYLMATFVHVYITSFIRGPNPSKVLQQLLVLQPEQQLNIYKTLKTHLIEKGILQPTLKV

[3] = biological target: T3, HA-CDS2 (human CDP-diacylglycerol synthase 2, HA-tagged) (human) (UniProt O95674); assay: as above
T3 sequence: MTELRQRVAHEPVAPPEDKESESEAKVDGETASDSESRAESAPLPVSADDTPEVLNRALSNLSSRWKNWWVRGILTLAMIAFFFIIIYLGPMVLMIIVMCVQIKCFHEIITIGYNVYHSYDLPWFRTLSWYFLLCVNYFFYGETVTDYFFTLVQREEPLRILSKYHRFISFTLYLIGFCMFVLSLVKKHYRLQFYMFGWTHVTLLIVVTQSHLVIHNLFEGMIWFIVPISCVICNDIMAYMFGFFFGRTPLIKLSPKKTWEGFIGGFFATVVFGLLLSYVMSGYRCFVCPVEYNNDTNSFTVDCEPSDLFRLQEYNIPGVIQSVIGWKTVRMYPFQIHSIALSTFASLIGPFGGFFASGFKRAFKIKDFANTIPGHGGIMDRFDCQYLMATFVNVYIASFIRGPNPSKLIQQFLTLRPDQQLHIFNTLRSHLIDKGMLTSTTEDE

[4] = biological target: T4, CDS2-mScarlet (endogenous CDS2 tagged at its genomic locus) (human (endogenous in HeLa)) (UniProt O95674); assay: co-IP; HeLa cells with AGPAT2-sfGFP and CDS2-mScarlet knocked in at their genomic loci (DKI), single knock-in (SKI) as control; which of the two was precipitated is not told
T4 sequence: T3 sequence

[5] = biological target: T5, Flag-CDS1 (full-length human CDS1 with an N-terminal Flag tag) (human) (UniProt Q92903); assay: two-step affinity co-purification (anti-Flag, then Strep-Tactin); Flag-CDS1 or Flag-CDS2 co-expressed with AGPAT2-Strep in HEK293F; membranes solubilised with 1% GDN; anti-Flag G1 resin, Flag peptide elution, then Strep-Tactin resin, biotin elution; 25 mM Tris pH 8.0, 150 mM NaCl, 0.02% GDN; SDS-PAGE, Coomassie blue
T5 sequence: T2 sequence

[6] = biological target: T6, Flag-CDS2 (full-length human CDS2 with an N-terminal Flag tag) (human) (UniProt O95674); assay: as above
T6 sequence: T3 sequence

binding [1]: binds
Molecule: seipin (construct of the control co-immunoprecipitation, Supplementary Fig. 5b) (from UniProt Q96G97 1-398)

binding [2]: binds
binding [3]: binds
B1: AGPAT2-GFP (human 1-acylglycerol-3-phosphate O-acyltransferase 2, GFP-tagged) (enzyme, UniProt O15120 24-278)
chain: AEFYAKVALYCALCFTVSAVASLVCLLRHGGRTVENMSIIGWFVRSFKYFYGLRFEVRDPRRLQEARPCVIVSNHQSILDMMGLMEVLPERCVQIAKRELLFLGPVGLIMYLGGVFFINRQRSSTAMTVMADLGERMVRENLKVWIYPEGTRNDNGDLLPFKKGAFYLAVQAQVPIVPVVYSSFSSFYNTKKKFFTSGTVTVQVLEAIPTSGLTAADVPALVDTCHRAMRTTFLHISKTPQENGATAGSGVQPAQ

binding [2]: binds
binding [3]: binds
B2: AGPAT2-mCherry (human AGPAT2, mCherry-tagged) (enzyme, UniProt O15120 24-278)
chain: B1 chain

binding [4]: binds
B3: AGPAT2-sfGFP, longer isoform (endogenous AGPAT2 tagged at its genomic locus) (enzyme, UniProt O15120 24-278)
chain: B1 chain

binding [5]: binds
binding [6]: binds
B4: AGPAT2-Strep (full-length human AGPAT2 with a C-terminal Strep tag) (enzyme, UniProt O15120 24-278)
chain: B1 chain
